Reference: patent publication US20180320217A1, “METHODS FOR SAMPLING AND MEASURING ORAL LAVAGE PROTEINS” (The Procter & Gamble Company, priority 2017, published 2018)

Test system: proteins in oral lavage
Assay: Abundance of proteins in human oral lavage (SomaLogic), TABLE 1
Type: in vivo
Conditions: for Means (Original Scale) High bleeder BL / Means (Original Scale) High bleeder W4 / Means (Original Scale) Low bleeder BL: abundance in oral lavage; for Means (Original Scale) High bleeder BL: high bleeders (gingivitis); for Means (Original Scale) High bleeder BL / Means (Original Scale) Low bleeder BL: baseline; for Means (Original Scale) High bleeder W4 / Fold Change High bleeder W4 vs High bleeder BL: high bleeders; for Means (Original Scale) High bleeder W4: week 4 of investigative products; for Means (Original Scale) Low bleeder BL: low bleeders (healthy); for Fold Change High bleeder BL vs Low bleeder BL / Fold Change High bleeder W4 vs High bleeder BL: oral lavage
[1] = high bleeders vs low bleeders at baseline
[2] = week 4 of investigative products vs baseline
[3] = week 4 of treatment vs baseline
[4] = high vs low bleeders at baseline

Substance | Means (Original Scale) High bleeder BL | Means (Original Scale) High bleeder W4 | Means (Original Scale) Low bleeder BL | Fold Change High bleeder BL vs Low bleeder BL [1] | Fold Change High bleeder W4 vs High bleeder BL [2] | Fold Change High bleeder W4 vs High bleeder BL [3] | Fold Change High bleeder BL vs Low bleeder BL [4]
High affinity nerve growth factor receptor | 919 | 590 | 428 | 2.06 | 0.67 | – | –
Insulin-like growth factor-binding protein 5 | 36296 | 21609 | 13120 | 2.49 | 0.65 | – | –
Integrin alpha-I: beta-1 complex | 11211 | 6351 | 948 | 6.43 | 0.58 | – | –
Interferon gamma | 658 | 263 | 87 | 5.99 | 0.53 | – | –
Interleukin-1 Receptor accessory protein | 5433 | 2418 | 1501 | 3.72 | 0.52 | – | –
Interleukin-1 alpha | 1989 | 1071 | 1194 | 1.86 | 0.51 | – | –
Interleukin-1 beta | 397 | 228 | 152 | 2.54 | 0.60 | – | –
Latent-transforming growth factor beta-binding protein 4 | 3512 | 1923 | 770 | 4.42 | 0.57 | – | –
Leptin | 952 | 526 | 179 | 4.44 | 0.61 | – | –
Lumican | 35877 | 11354 | 5119 | 6.31 | 0.42 | – | –
Mitogen-activated protein kinase 1 | 1159 | 457 | 129 | 6.92 | 0.65 | – | –
Mitogen-activated protein kinase 3 | 2149 | 953 | 305 | 6.58 | 0.62 | – | –
Mitogen-activated protein kinase 9 | 2969 | 1342 | 1367 | 1.74 | 0.57 | – | –
Mitogen-activated protein kinase 14 | 5862 | 3068 | 596 | 15.65 | 0.60 | – | –
N-acetyl-D-glucosamine kinase | 2839 | 1570 | 283 | 12.44 | 0.48 | – | –
Neuregulin-1 | 251 | 142 | 107 | 2.07 | 0.60 | – | –
Neurogenic locus notch homolog protein 3 | 12232 | 5959 | 2264 | 4.76 | 0.54 | – | –
Neutrophil collagenase | 21211 | 4713 | 9187 | 2.96 | 0.48 | – | –
Osteocalcin (YLYQWLGAPVPYPDPLEPRREVCELNPDCDELADHIGFQEAYRRFYGPV; UniProt P02818 52-100, looked up) | 3206 | 1808 | 986 | 3.38 | 0.63 | – | –
Parathyroid hormone | 97 | 58 | 32 | – | – | 0.67 | 2.54
Parathyroid hormone-related protein | 102 | 74 | 45 | – | – | 0.76 | 2.19
Peptidyl-prolyl cis-trans isomerase F, mitochondrial | 9535 | 4115 | 534 | – | – | 0.58 | 17.73
